Test results published in patent US7892830B2, “Clonal culture of human pluripotent stem cells” (Wisconsin Alumni Research Foundation, priority 2007, dated 2011).
Structures can show the parent of a compound that is named as a salt. Some entries share one result that the patent states for a list of compounds.

System: H1 human ES cells
Test: 6-well cloning efficiency assay in TeSR1 medium on Matrigel, colonies counted manually
Type: cell-based
Details: defined medium such as TeSR1 on Matrigel-coated culture dishes
Source text: As described above, a difficulty in growing pluripotent cells, like ES cells, in culture is their low cloning efficiency. As used herein, “cloning efficiency” means a number of cells individualized by trypsin that form new ES cell colonies divided by the number of individual cells plated in a well of a culture dish. In our prior experience with growing human ES cells in defined and animal-free conditions on a matrix (e.g., Matrigel®), cloning efficiency was very low (i.e., less than 0.1%). This contrasts with prior experience using culture systems based on medium conditioned by exposure to fibroblasts, where the cloning efficiency, while still low (i.e., less than 2%), was high enough to initiate clonal ES cell colonies. As disclosed herein, the addition of a small molecule to the culture medium in which human ES cells are grown permits the ES cell cultures to be clonally cultivated in a manner that is extremely difficult without the addition of the small molecule. Several small molecules are exemplified herein for this purpose.
For these assays, 10,000 cells per well were plated on Matrigel®—coated plates and then treated every other day for a total of four days. with the small molecules as described above. To evaluate the effect of the tested small molecules on cloning efficiency, we manually counted colonies after 10 days.
We determined cloning efficiency (CE; the number of colony forming units (CFU) per number of plated single cells, trypsin/EDTA treated). HA-100 was the first molecule identified in the small molecule screen, following which other structurally similar small molecules were also tested for cloning efficiency.

Q: `CNCCNS(=O)(=O)c1cccc2cnccc12` [H-8, N-2-(methylamino)ethyl-5-isoquinoline-sulfonamide dihydrochloride] was tested. Which cloning efficiency supported did it give?
A: > 1%

Q: For `Cc1cncc2cccc(S(=O)(=O)N3CCCNC[C@@H]3C)c12` [H-1152, (S)-(+)-2-methyl-1-[(4-methyl-5-isoquinolinyl)sulfonyl]homopiperazine dihydrochloride], which cloning efficiency supported is on record?
A: > 1%

Q: Which cloning efficiency supported does the source give for `O=S(=O)(c1cccc2cnccc12)N1CCNCC1` [HA-100, 1-(5-isoquinolinesulfonyl)piperazine hydrochloride] here?
A: > 1%

Q: With `C[C@@H](N)[C@H]1CC[C@H](C(=O)Nc2ccncc2)CC1` [Y-27632, (+)-(R)-trans-4-(1-aminoethyl)-N-(4-pyridyl)cyclohexanecarboxamide dihydrochloride] as the compound, how does the cloning efficiency supported read?
A: > 1%
